Results deposited as PubChem BioAssay AID1671195 (Yale University, 2021)

Aim: 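Regulators of LDL receptor activity judged by labelled LDL uptake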 (primary screen)
Cell system: human Huh7 hepatoma cells
Reagent: siRNA pool against human genes, 18 nM
Time to read-out: about 2 to 2.5 days of knockdown, then 8 h LDL uptake
Challenge: DiI-labelled LDL at 30 µg/ml for 8 h, in lipoprotein-deficient serum medium
Measured: 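Per-cell DiI-LDL intensity by automated imaging; well means scaled to the plate median and given as a robust z-score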
Scale: robust z-score: higher = more LDL uptake after knockdown
Call rule: 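Active when two or more replicates show a robust z-score above 2 or below -2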
The whole screen tested about 22,000 reagents; shown is an unselected part. About 1,510 of them (6.9%) were called active. 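Active includes knockdowns raising or lowering LDL uptake; positive z-scores mean more uptake, negative mean less.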 The numbers tell different reagents against one gene apart. No sequences are given here.

no.	gene symbol	reagent	robust z-score, replicate 1	robust z-score, replicate 2	robust z-score, replicate 3	Call
1	KCTD8	1	1.08	1.69	0.716	inactive
2	CNOT9	1	-0.296	-1.02	-0.358	inactive
3	AOX1	1	-0.426	0.0151	-0.29	inactive
4	C1QTNF9	1	-0.267	-0.0842	-0.459	inactive
5	RAB27A	1	1.41	0.762	0.845	inactive
6	JAGN1	1	-0.248	-0.112	0.747	inactive
7	ITGA5	1	0.988	-0.623	-0.471	inactive
8	SHROOM3	1	0.0625	0.766	0.548	inactive
9	IL9R	1	-0.831	-1.14	-1.06	inactive
10	MFAP3L	1	-0.946	-0.927	-1.01	inactive
11	MDC1	1	1.59	0.21	-0.375	inactive
12	ZNF565	1	2.12	1.34	2.3	active
13	CAMK1	1	1.7	0.478	1.09	inactive
14	POLL	1	1.03	0.201	0.893	inactive
15	SENP5	1	-0.3	-0.572	0.385	inactive
16	LYSMD1	1	2.56	1.04	1.02	inactive
17	MMP8	1	2.29	0.564	1.11	inactive
18	CNTNAP3B	1	2.51	1.89	2.62	active
19	CNTNAP3B	2	0.344	0.224	0.414	inactive
20	CNTNAP3B	3	-1.01	-0.93	-0.852	inactive
21	LOC390468 (retired record)	1	-0.546	-0.198	-0.758	inactive
22	TRABD	1	0.147	-0.7	-0.467	inactive
23	CPA6	1	0.961	0.903	0.306	inactive
24	H2BC4	1	0.554	0.647	1.59	inactive
25	WEE2-AS1	1	-1.78	-1.97	-2.03	active
26	DNASE2	1	0.67	0.713	0.484	inactive
27	FBXO24	1	0.408	-0.0751	0.67	inactive
28	ADGRG6	1	-1.28	-0.507	-1.5	inactive

Records listed so far with an active call (3):
gene symbol	reagent	robust z-score, replicate 1	robust z-score, replicate 2	robust z-score, replicate 3	Call
ZNF565	1	2.12	1.34	2.3	active
CNTNAP3B	1	2.51	1.89	2.62	active
WEE2-AS1	1	-1.78	-1.97	-2.03	active
